This is an account of results in publication PMC5852242.

Sequences of proteins named here, by UniProt entry; tags and fusion partners are left off.
UniProt P63104: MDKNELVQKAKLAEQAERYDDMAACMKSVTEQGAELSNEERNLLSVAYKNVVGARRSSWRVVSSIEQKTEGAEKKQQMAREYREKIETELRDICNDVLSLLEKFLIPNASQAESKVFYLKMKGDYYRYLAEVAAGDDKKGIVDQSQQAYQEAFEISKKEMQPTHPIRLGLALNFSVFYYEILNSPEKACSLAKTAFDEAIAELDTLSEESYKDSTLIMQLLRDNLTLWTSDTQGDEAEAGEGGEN

No constants are given. Whether binding was seen depends on the method and setting. In cells and extracts the contact can be indirect. Here binding means that the protein was enriched with, or labelled near, the bait; the list need not be complete. Tags and fused reporters may be left off the sequences shown.

The assay concerns the target T1, Flag-tagged TRIP13 (Thyroid hormone Receptor Interactor 13) (UniProt Q15645).
T1 sequence: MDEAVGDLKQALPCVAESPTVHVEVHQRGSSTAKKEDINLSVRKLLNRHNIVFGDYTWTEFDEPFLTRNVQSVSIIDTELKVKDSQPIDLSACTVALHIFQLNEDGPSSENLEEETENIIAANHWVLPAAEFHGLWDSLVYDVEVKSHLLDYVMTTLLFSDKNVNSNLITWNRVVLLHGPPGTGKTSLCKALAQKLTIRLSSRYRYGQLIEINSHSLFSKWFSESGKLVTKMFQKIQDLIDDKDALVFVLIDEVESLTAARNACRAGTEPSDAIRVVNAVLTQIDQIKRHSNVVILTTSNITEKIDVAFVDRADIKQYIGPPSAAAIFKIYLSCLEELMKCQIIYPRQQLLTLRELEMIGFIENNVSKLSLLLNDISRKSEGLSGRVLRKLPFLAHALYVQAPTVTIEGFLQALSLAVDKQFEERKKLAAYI
Description: affinity purification with mass spectrometry; lysate of HCT116-Flag-TRIP13 cells or control; TRIP13 complex proteins purified with anti-Flag M2 magnetic beads, eluted in loading buffer, SDS-PAGE, Coomassie staining, nano-LC-MS/MS.

For “YWHAZ (14-3-3ζ) (from UniProt P63104 1-245)”, the binding entry is listed as “binds”.

B1: YWHAQ (protein, UniProt P27348 1-245)
chain: MEKTELIQKAKLAEQAERYDDMATCMKAVTEQGAELSNEERNLLSVAYKNVVGGRRSAWRVISSIEQKTDTSDKKLQLIKDYREKVESELRSICTTVLELLDKYLIANATNPESKVFYLKMKGDYFRYLAEVACGDDRKQTIDNSQGAYQEAFDISKKEMQPTHPIRLGLALNFSVFYYEILNNPELACTLAKTAFDEAIAELDTLNEDSYKDSTLIMQLLRDNLTLWTSDSAGEECDAAEGAEN
Turning to B1, the binding entry is “binds”.
